Test results as given in PubChem BioAssay AID2685 (National Center for Advancing Translational Sciences (NCATS), 2010).
The list shows a part of the results. Further columns of the screen follow, without active or inactive calls. Most of these compounds were active or inconclusive in the main read-out, so they are no random draw. Potencies come from curve fits of mixed quality, noted in brackets.

Test: qHTS Assay for Lipid Storage Modulators in Drosophila S3 Cells;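 on cell number change: cells counted by Cell Tracker Red CMTPX staining in the red channel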
Conditions: BODIPY lipid droplet fluorescence, 18-24 h; for cell number change: measured here: cell count max response, cells fed with added oleic acid
Outline: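 Drosophila S3 cells loaded with oleic acid (400 uM, as added) and compounds at several concentrations; lipid droplets imaged by 488-nm laser-scanning cytometry, 500–530 nm intensity and object ratio to cell channel. Percent activity normalized to 20 uM Triacsin C.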

[1] = measured here: cell number channel AC50, cells fed with added oleic acid
[2] = measured here: lipid fluorescence (Fed channel) AC50, cells fed with added oleic acid

SMILES	cell number change [%]	AC50 [1]	AC50 [2]
CN(C)CCCOc1ccc2c(c1)Sc1ccccc1CC2=O	-66.7	29.1 µM [falling, single point]	
COCCNC(=O)CC(NS(=O)(=O)c1ccc(NC(C)=O)cc1)C(C)C (configuration not stated)			29.1 µM [falling, single point]
CC(=O)C(=[N+]=[N-])C(=O)NCc1ccccc1	-20.4		
COc1ccccc1NCC(=O)n1nc(C)cc1C	23.5		0.00517 µM [rising, full curve, poor fit]
CC(C)c1ccc(C2(C)NC(=O)N(C(C)C(=O)Nc3ccc(N4CCOCC4)cc3)C2=O)cc1 (configuration not stated)	0.402		
COc1cccc(C2=NOC(C(=O)Nc3ccc(OC)c(OC)c3)C2)c1 (configuration not stated)			16.4 µM [falling, partial curve]
O=C(Nc1ccccc1N1CCOCC1)c1cc2ccccc2o1			29.1 µM [falling, single point]
COc1ccc(NC(=O)CC2C(=O)N(c3ccc(OC)cc3)C(=S)N2NC(=O)c2cccc(F)c2)cc1 (configuration not stated)		6.51 µM [falling, single point]	23.1 µM [rising, single point]
Nc1c(C(=O)NCCN2CCOCC2)c2nc3ccccc3nc2n1CCc1ccccc1	-68.2	29.1 µM [falling, single point]	1.64 µM [rising, partial curve, poor fit]
O=c1c2ccccc2[nH]c(=S)n1C1CCCCC1	-26		
CCCn1c(COc2ccc(C(=O)O)cc2)nc2ccccc21	14.1		29.1 µM [rising, single point]
Oc1ccc(-c2[nH]ncc2-c2cccc3cccnc23)c(O)c1	-12.5		2.06 µM [rising, full curve]
O=S(=O)(NC1CCCC1)c1cccc(-c2nnc(-c3ccccc3)o2)c1		0.13 µM [rising, full curve, poor fit]	0.259 µM [rising, full curve]
CC(=O)Nc1c(N)c2ccccc2oc1=O	7.04		
CN(C)c1ccnc(-n2cccc2/C=N/OCc2cccc(F)c2)c1C#N	182	8.2 µM [rising, partial curve]	9.2 µM [rising, partial curve]
O=C(Oc1cccc(NC(=O)c2ccco2)c1)c1ccc(Br)c(S(=O)(=O)N2CCCCC2)c1	-11.4		
CCOC(=O)CCNC(=O)c1ccccc1Br	-2.93		
COc1ccc(N=C2S/C(=C\c3ccc(N4CCOCC4)o3)C(=O)N2CCc2c[nH]c3ccccc23)cc1	-41.9	32.6 µM [falling, partial curve, poor fit]	20.6 µM [falling, partial curve]
COc1ccc(CN2CCN(C(=O)c3ccc(S(=O)(=O)NCc4ccco4)cc3)CC2)cc1	-70.1	20.6 µM [falling, single point]	
O=C(NCCC1CCCCN1S(=O)(=O)c1ccccc1)C(=O)NCc1cccnc1 (configuration not stated)	1.75		5.8 µM [falling, full curve, poor fit]
Nc1nnc(Cc2ccc(F)cc2)s1	1.35		

SMILES	cell number change [%]	AC50 [1]	AC50 [2]
COc1cc(C(=O)NCCc2ccc(S(N)(=O)=O)cc2)ccc1OCc1c(C)noc1C	-1.78	3.66 µM [falling, single point]	3.66 µM [falling, partial curve]
C/C(=N\NC(=O)COc1ccccc1F)c1cc2ccccc2o1	-10	2.31 µM [rising, single point]	2.31 µM [rising, partial curve]
COc1cc(-c2nnc(CSc3nc4ccccc4s3)o2)cc(OC)c1OC	-16.3		
Cc1[nH]nc(Nc2ccc(C(C)C)cc2)c1[N+](=O)[O-]	5.12		0.411 µM [rising, full curve]
Cc1nc(-c2ccccc2)cn2c1nc1ccccc12	-18.2	0.103 µM [falling, full curve, poor fit]	8.2 µM [falling, partial curve]
CNc1ccccc(-c2ccc3cc4c(cc3n2)OCO4)c1=O	22.1		7.31 µM [rising, partial curve]
Cc1cccc(C)c1NC(=O)COC(=O)C1CC(=O)N(Cc2ccccc2)C1 (configuration not stated)		0.0517 µM [rising, full curve, poor fit]	0.058 µM [rising, partial curve, poor fit]
COc1cccc(C2=NOC(C(=O)Nc3ccc4c(c3)OCO4)C2)c1OC (configuration not stated)	9.01	1.84 µM [rising, partial curve, poor fit]	
Cc1ccc2c(c1)C1(C(=O)N2C)N2CC3(C)CN1CC(C)(C2)C3=O (configuration not stated)	30.3	13 µM [rising, single point]	29.1 µM [rising, single point]
COc1ccc(S(=O)(=O)NCc2ccncc2)cc1NC(=O)c1ccc(Cl)cc1		2.06 µM [rising, partial curve]	
CCOC(=O)c1c(C)n(CCNC(C)=O)c2ccc(O)cc12		2.31 µM [rising, partial curve]	
Cc1nnc(SCc2ccccc2Cl)n1CC1CCCO1 (configuration not stated)	-30.2		25.9 µM [falling, single point]
Cc1onc(-c2ccccc2Cl)c1C(=O)N1CCCCC1C (configuration not stated)	17.9		
Cc1cc(NC(=O)c2ccccc2)n(C(C)(C)C)n1	-46.9	29.1 µM [falling, single point]	29.1 µM [falling, single point]
O=c1c2ccccc2sn1-c1ccccc1	-88.1	3.66 µM [falling, full curve, poor fit]	25.9 µM [falling, single point]
O=S(=O)(c1ccc(Cl)cc1)N1CCN=C1SCc1cccc(Cl)c1	29.5		16.4 µM [rising, partial curve]
O=C(O)/C=C/C(=O)N1CCN(c2ccc(F)cc2)CC1	-21.9		1.84 µM [falling, partial curve]
O=C(O)c1nn(CC(=O)N2CCC(Cc3ccccc3)CC2)c(=O)c2ccccc12	-9.21		
Cc1cc(C)c2cc(C#N)c(SCC(=O)NCC3CCCO3)nc2c1 (configuration not stated)	6.03		
COc1cc(C=O)ccc1OC(=O)c1cccnc1	15.2		
N#Cc1ccc(C23CC4(C2)[C@H](CN(CC2CCCCC2)[C@@H]4c2ccccc2)C3c2ccc(Cl)nc2)cc1 (some centres not stated)	30.8		29.1 µM [rising, single point]

Copied from the list.
cell number change [%], Cc1cc(C)c2cc(C#N)c(SCC(=O)NCC3CCCO3)nc2c1 (configuration not stated) reads 6.03
AC50 [1], C/C(=N\NC(=O)COc1ccccc1F)c1cc2ccccc2o1 reads 2.31 µM [rising, single point]

Carrying on.

SMILES	cell number change [%]	AC50 [1]	AC50 [2]
Cc1ccccc1C1CC(c2ccc(F)cc2)Nc2nc(N)nn21 (configuration not stated)	0.284		
CCOc1ccc(-c2cccc(NS(=O)(=O)c3ccc([N+](=O)[O-])cc3)c2)nn1	-75	29.1 µM [falling, single point]	0.82 µM [rising, full curve]
CCOc1ccc(S(=O)(=O)NCCC(=O)N2CCN(Cc3ccccc3)CC2)cc1			6.51 µM [falling, partial curve]
O=C(Nc1ccc(NC(=O)c2cccs2)cc1)c1ccc2ccccc2c1	219		
COc1ccc(OC)c(N(CC(=O)Nc2cccnc2)S(=O)(=O)c2ccccc2)c1		2.06 µM [rising, partial curve]	2.06 µM [rising, partial curve]
FC(F)Sc1ccc(NC(=S)NC2CCCC2)cc1	26.5		
O=C(NNC(=O)c1ccccc1Cl)c1ccco1	12.9		0.116 µM [falling, full curve, poor fit]
O=C(CCC(=O)c1cccs1)NNC(=O)c1ccc(Cl)cc1	-30.5		1.84 µM [falling, partial curve]
COc1cc(OC)c(C(=O)Nc2ccc(S(=O)(=O)Nc3ncccn3)cc2)cc1OC	-2.57		16.4 µM [rising, single point]
COc1ccc(OC)c(S(=O)(=O)Nc2ccc(F)cc2)c1	23.4		0.291 µM [rising, single point]
COc1ccc(NC(=O)CO/N=C(\C)c2cccs2)cc1	26.8		0.13 µM [rising, full curve, poor fit]
Cc1ccc(NCCC(=O)c2cccs2)cc1C	-12	0.259 µM [falling, single point]	1.16 µM [falling, partial curve]
O=C(Nc1ccc2c(c1)OCO2)C1CCN(C(=O)CSc2ncnc3ccccc23)CC1	32.5	16.4 µM [rising, single point]	
CCN1CCN(CC(=O)N2N=CCC2c2ccccc2)CC1 (configuration not stated)	-10.2	0.00517 µM [falling, full curve, poor fit]	
COc1cc(CN2CCN(C(=O)c3ccccc3F)CC2)cc(OC)c1OC	-20.6		4.61 µM [falling, single point]
Cc1ccc2nc(C)cc(C(=O)OCC(=O)Nc3c(C)n(C)n(-c4ccccc4)c3=O)c2c1		6.51 µM [rising, partial curve, poor fit]	
CCOc1cc(C(=O)Nc2ccc3c4c(cccc24)C(=O)N3CC)cc(OCC)c1OCC		0.0731 µM [rising, full curve]	0.082 µM [rising, full curve, poor fit]
COc1ccc(C(=O)/C(=C/O)N=Nc2ccc(F)cc2)cc1			0.0731 µM [falling, full curve, poor fit]
COC(=O)c1cc2c(C)nn(-c3ccccc3)c2s1		0.517 µM [rising, partial curve]	2.59 µM [rising, full curve]
COc1ccc(NC(=O)c2cc(-c3cccs3)on2)c(OC)c1	75.4	18.4 µM [rising, partial curve]	

Two records drawn at random from the list so far, as already listed:
SMILES	cell number change [%]	AC50 [1]	AC50 [2]
CCOc1ccc(-c2cccc(NS(=O)(=O)c3ccc([N+](=O)[O-])cc3)c2)nn1	-75	29.1 µM [falling, single point]	0.82 µM [rising, full curve]
Cc1ccccc1C1CC(c2ccc(F)cc2)Nc2nc(N)nn21 (configuration not stated)	0.284		
